Measurements as given in the supplement of paper PMC4604168 (melanoma cell lines).
The list shows a part of the results. Single values are uncertain, as repeats are few or missing.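 Imaging used 1,536-well plates; nuclei positive for cleaved PARP by antibody were divided by total DNA-stained nuclei to yield the apoptosis fraction. Doses for screening kept most cells viable, and cell lines differ markedly in resting and induced cleaved-PARP levels.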

How the values were obtained:
Assay in all cases: cleaved PARP positive nuclei fraction relative to DMSO control; melanoma cells; higher = more apoptosis
Conditions in all cases: library dose: low library concentration; 72 h
WM115 = system: WM115
WM1716 = system: WM1716
WM1745 = system: WM1745
WM3526 = system: WM3526
WM3619 = system: WM3619
WM451Lu = system: WM451Lu

| SMILES | cleaved PARP positive nuclei fraction (WM115) [%] | cleaved PARP positive nuclei fraction (WM1716) [%] | cleaved PARP positive nuclei fraction (WM1745) [%] | cleaved PARP positive nuclei fraction (WM3526) [%] | cleaved PARP positive nuclei fraction (WM3619) [%] | cleaved PARP positive nuclei fraction (WM451Lu) [%] |
| --- | --- | --- | --- | --- | --- | --- |
| O=C(Nc1cc(C(F)(F)F)cc(C(F)(F)F)c1)c1cc(Cl)ccc1O + Clc1ccc(Nc2nnc(Cc3ccncc3)c3ccccc23)cc1 [vatalanib] (first compound 0.016 µM, partner dose 2 µM) | 80.1 | 173 | 101 | 37 | 73.3 | 388 |
| Cc1ccc(Nc2nccc(N(C)c3ccc4c(C)n(C)nc4c3)n2)cc1S(N)(=O)=O [Pazopanib] + COc1cc(N2CCC(N3CCN(C)CC3)CC2)ccc1Nc1ncc(Cl)c(Nc2ccccc2S(=O)(=O)C(C)C)n1 [NVP-TAE684] (first compound 0.4 µM, partner dose 0.08 µM) | 56.3 | 129 | 117 | 99.6 | 135 | 51.8 |
| O=c1[nH]nc(Sc2ncc([N+](=O)[O-])s2)n1-c1ccc2c(c1)OCCO2 + Cc1ccc(Nc2nccc(N(C)c3ccc4c(C)n(C)nc4c3)n2)cc1S(N)(=O)=O [Pazopanib] (first compound 0.2 µM, partner dose 0.4 µM) | 79.5 | 111 | 97.9 | 166 | 106 | 94.3 |
| Cc1cc(Nc2cc(N3CCN(C)CC3)nc(Sc3ccc(NC(=O)C4CC4)cc3)n2)n[nH]1 [Tozasertib] + Cc1cc([N+](=O)[O-])ccc1NS(=O)(=O)c1cc(Cl)ccc1Cl [FH535] (first compound 0.006 µM, partner dose 1 µM) | 85.4 | 132 | 108 | 90.1 | 81.3 | 45.5 |
| O=C(Nc1cc(C(F)(F)F)cc(C(F)(F)F)c1)c1cc(Cl)ccc1O + Nc1ncn([C@H]2C[C@H](O)[C@@H](CO)O2)c(=O)n1 [decitabine] (first compound 0.016 µM, partner dose 0.1 µM) | 90.6 | 40.6 | 112 | 289 | 78.6 | 49.8 |
| CCCCCCCCCCCCCCCCCCOP(=O)([O-])OC1CC[N+](C)(C)CC1 [Perifosine] + COc1ccc(COc2ccc(Cc3cnc(N)nc3N)cc2OC)cc1 [GW2580] (first compound 0.4 µM, partner dose 1 µM) | 37.6 | 50.7 | 176 | 70.2 | 78.5 | 50.1 |
| N#CC[C@H](C1CCCC1)n1cc(-c2ncnc3[nH]ccc23)cn1 [ruxolitinib] + Oc1nc(-c2ccc(C(F)(F)F)cc2)nc2c1CSCC2 [XAV939] (first compound 1 µM, partner dose 2 µM) | 53.1 | 335 | 82.6 | 189 | 67.6 | 110 |
| O=c1[nH]nc(Sc2ncc([N+](=O)[O-])s2)n1-c1ccc2c(c1)OCCO2 + Cc1cn(-c2cc(NC(=O)c3ccc(C)c(Nc4nccc(-c5cccnc5)n4)c3)cc(C(F)(F)F)c2)cn1 [nilotinib] (first compound 0.2 µM, partner dose 0.2 µM) | 95.7 | 147 | 110 | 178 | 108 | 80.4 |
| O=C(/C=C/c1cccnc1)NCCCCC1CCN(C(=O)c2ccccc2)CC1 + Oc1nc(-c2ccc(C(F)(F)F)cc2)nc2c1CSCC2 [XAV939] (first compound 0.01 µM, partner dose 2 µM) | 155 | 194 | 99.9 | 40.4 | 168 | 37.9 |
| COc1cc([C@@H]2c3cc4c(cc3[C@@H](O[C@@H]3O[C@@H]5CO[C@@H](C)O[C@H]5[C@H](O)[C@H]3O)[C@H]3COC(=O)[C@H]23)OCO4)cc(OC)c1O [etoposide] + O=S(=O)(c1ccccc1)N(CC(F)(F)F)c1ccc(C(O)(C(F)(F)F)C(F)(F)F)cc1 [T0901317] (first compound 0.02 µM, partner dose 1.4 µM) | 75.5 | 241 | 103 | 391 | 81.1 | 23.9 |
| O=C(Nc1cc(C(F)(F)F)cc(C(F)(F)F)c1)c1cc(Cl)ccc1O + NC(=O)Nc1cc(-c2cccc(F)c2)sc1C(=O)N[C@H]1CCCNC1 [AZD7762] (first compound 0.016 µM, partner dose 0.02 µM) | 139 | 201 | 96.6 | 51.5 | 122 | 123 |
| Cc1ccc(Nc2nccc(N(C)c3ccc4c(C)n(C)nc4c3)n2)cc1S(N)(=O)=O [Pazopanib] + Cn1cncc1[C@@](N)(c1ccc(Cl)cc1)c1ccc2c(c1)c(-c1cccc(Cl)c1)cc(=O)n2C [tipifarnib] (first compound 0.4 µM, partner dose 0.01 µM) | 88.3 | 176 | 99.3 | 80.9 | 97.2 | 77.7 |
| O=C(/C=C/c1cccnc1)NCCCCC1CCN(C(=O)c2ccccc2)CC1 + Nc1ccn([C@@H]2O[C@H](CO)[C@@H](O)C2(F)F)c(=O)n1 [gemcitabine] (first compound 0.01 µM, partner dose 0.0004 µM) | 75 | 71.2 | 106 | 19.2 | 122 | 173 |
| Cc1cc(Nc2cc(N3CCN(C)CC3)nc(Sc3ccc(NC(=O)C4CC4)cc3)n2)n[nH]1 [Tozasertib] + CC(=O)O[C@@]12CO[C@@H]1C[C@H](O)[C@@]1(C)C(=O)[C@H](O)C3=C(C)[C@@H](OC(=O)[C@H](O)[C@@H](NC(=O)OC(C)(C)C)c4ccccc4)C[C@@](O)([C@@H](OC(=O)c4ccccc4)[C@H]21)C3(C)C [Docetaxel] (first compound 0.006 µM, partner dose 0.0001 µM) | 396 | 90 | 160 | 230 | 128 | 93.4 |
| Cc1cn(-c2cc(NC(=O)c3ccc(C)c(Nc4nccc(-c5cccnc5)n4)c3)cc(C(F)(F)F)c2)cn1 [nilotinib] + Cn1c(=O)n(-c2ccc(C(C)(C)C#N)cc2)c2c3cc(-c4cnc5ccccc5c4)ccc3ncc21 [NVP-BEZ235] (first compound 0.2 µM, partner dose 0.004 µM) | 83.4 | 145 | 95 | 156 | 98.6 | 163 |
| N#CC[C@H](C1CCCC1)n1cc(-c2ncnc3[nH]ccc23)cn1 [ruxolitinib] + Cn1cnc2c(F)c(Nc3ccc(Br)cc3Cl)c(C(=O)NOCCO)cc21 [selumetinib] (first compound 1 µM, partner dose 0.015 µM) | 13 | 204 | 100 | 51.3 | 103 | 81.1 |
| Cc1cn(-c2cc(NC(=O)c3ccc(C)c(Nc4nccc(-c5cccnc5)n4)c3)cc(C(F)(F)F)c2)cn1 [nilotinib] + CC(=O)O[C@@]12CO[C@@H]1C[C@H](O)[C@@]1(C)C(=O)[C@H](O)C3=C(C)[C@@H](OC(=O)[C@H](O)[C@@H](NC(=O)OC(C)(C)C)c4ccccc4)C[C@@](O)([C@@H](OC(=O)c4ccccc4)[C@H]21)C3(C)C [Docetaxel] (first compound 0.2 µM, partner dose 0.0001 µM) | 281 | 338 | 157 | 228 | 278 | 64.2 |
| Cc1cn(-c2cc(NC(=O)c3ccc(C)c(Nc4nccc(-c5cccnc5)n4)c3)cc(C(F)(F)F)c2)cn1 [nilotinib] + O=c1cc(-c2cccc3c2Sc2ccccc2S3)oc(N2CCOCC2)c1 [KU55933] (first compound 0.2 µM, partner dose 1 µM) | 93.4 | 144 | 103 | 80 | 82.3 | 20.2 |
| O=C(Nc1cc(C(F)(F)F)cc(C(F)(F)F)c1)c1cc(Cl)ccc1O + COC(=O)c1sccc1S(=O)(=O)Nc1ccc(Nc2ccccc2)cc1OC [GSK0660] (first compound 0.016 µM, partner dose 1 µM) | 76.4 | 160 | 87.4 | 89 | 106 | 97.5 |
| Cc1cc(Nc2cc(N3CCN(C)CC3)nc(Sc3ccc(NC(=O)C4CC4)cc3)n2)n[nH]1 [Tozasertib] + CC1(C)NC(=O)N(c2ccc([N+](=O)[O-])c(C(F)(F)F)c2)C1=O [nilutamide] (first compound 0.006 µM, partner dose 1 µM) | 152 | 90.7 | 125 | 66.2 | 110 | 236 |
| CCCCCCCCCCCCCCCCCCOP(=O)([O-])OC1CC[N+](C)(C)CC1 [Perifosine] + CCc1ccc(CCOc2ccc(CC3SC(=O)NC3=O)cc2)nc1 [pioglitazone] (first compound 0.4 µM, partner dose 2 µM) | 117 | 182 | 88.9 | 88.8 | 104 | 565 |
| Cc1cc(Nc2cc(N3CCN(C)CC3)nc(Sc3ccc(NC(=O)C4CC4)cc3)n2)n[nH]1 [Tozasertib] + Cn1cnc2c(F)c(Nc3ccc(Br)cc3Cl)c(C(=O)NOCCO)cc21 [selumetinib] (first compound 0.006 µM, partner dose 0.015 µM) | 52 | 144 | 104 | 100 | 108 | 88.6 |

In a second layout: results already given.
SMILES	cleaved PARP positive nuclei fraction (WM115) [%]	cleaved PARP positive nuclei fraction (WM1716) [%]	cleaved PARP positive nuclei fraction (WM1745) [%]	cleaved PARP positive nuclei fraction (WM3526) [%]	cleaved PARP positive nuclei fraction (WM3619) [%]	cleaved PARP positive nuclei fraction (WM451Lu) [%]
O=C(Nc1cc(C(F)(F)F)cc(C(F)(F)F)c1)c1cc(Cl)ccc1O + Nc1ncn([C@H]2C[C@H](O)[C@@H](CO)O2)c(=O)n1 [decitabine] (first compound 0.016 µM, partner dose 0.1 µM)	90.6	40.6	112	289	78.6	49.8
CCCCCCCCCCCCCCCCCCOP(=O)([O-])OC1CC[N+](C)(C)CC1 [Perifosine] + COc1ccc(COc2ccc(Cc3cnc(N)nc3N)cc2OC)cc1 [GW2580] (first compound 0.4 µM, partner dose 1 µM)	37.6	50.7	176	70.2	78.5	50.1
